Results on six molecules are retold here after the supplement of paper PMC10032668.

By UniProt entry, the sequences of proteins in these tests, tags left out. Where a name states a change or a piece, a line headed by the entry shows the natural chain unless it says otherwise.
NUTF2, P61970, UniProt P61970, whole entry: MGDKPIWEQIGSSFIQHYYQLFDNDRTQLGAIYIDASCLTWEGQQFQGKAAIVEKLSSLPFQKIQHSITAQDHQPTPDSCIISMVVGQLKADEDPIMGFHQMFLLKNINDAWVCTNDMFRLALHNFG
A2M, P01023, UniProt P01023, whole entry: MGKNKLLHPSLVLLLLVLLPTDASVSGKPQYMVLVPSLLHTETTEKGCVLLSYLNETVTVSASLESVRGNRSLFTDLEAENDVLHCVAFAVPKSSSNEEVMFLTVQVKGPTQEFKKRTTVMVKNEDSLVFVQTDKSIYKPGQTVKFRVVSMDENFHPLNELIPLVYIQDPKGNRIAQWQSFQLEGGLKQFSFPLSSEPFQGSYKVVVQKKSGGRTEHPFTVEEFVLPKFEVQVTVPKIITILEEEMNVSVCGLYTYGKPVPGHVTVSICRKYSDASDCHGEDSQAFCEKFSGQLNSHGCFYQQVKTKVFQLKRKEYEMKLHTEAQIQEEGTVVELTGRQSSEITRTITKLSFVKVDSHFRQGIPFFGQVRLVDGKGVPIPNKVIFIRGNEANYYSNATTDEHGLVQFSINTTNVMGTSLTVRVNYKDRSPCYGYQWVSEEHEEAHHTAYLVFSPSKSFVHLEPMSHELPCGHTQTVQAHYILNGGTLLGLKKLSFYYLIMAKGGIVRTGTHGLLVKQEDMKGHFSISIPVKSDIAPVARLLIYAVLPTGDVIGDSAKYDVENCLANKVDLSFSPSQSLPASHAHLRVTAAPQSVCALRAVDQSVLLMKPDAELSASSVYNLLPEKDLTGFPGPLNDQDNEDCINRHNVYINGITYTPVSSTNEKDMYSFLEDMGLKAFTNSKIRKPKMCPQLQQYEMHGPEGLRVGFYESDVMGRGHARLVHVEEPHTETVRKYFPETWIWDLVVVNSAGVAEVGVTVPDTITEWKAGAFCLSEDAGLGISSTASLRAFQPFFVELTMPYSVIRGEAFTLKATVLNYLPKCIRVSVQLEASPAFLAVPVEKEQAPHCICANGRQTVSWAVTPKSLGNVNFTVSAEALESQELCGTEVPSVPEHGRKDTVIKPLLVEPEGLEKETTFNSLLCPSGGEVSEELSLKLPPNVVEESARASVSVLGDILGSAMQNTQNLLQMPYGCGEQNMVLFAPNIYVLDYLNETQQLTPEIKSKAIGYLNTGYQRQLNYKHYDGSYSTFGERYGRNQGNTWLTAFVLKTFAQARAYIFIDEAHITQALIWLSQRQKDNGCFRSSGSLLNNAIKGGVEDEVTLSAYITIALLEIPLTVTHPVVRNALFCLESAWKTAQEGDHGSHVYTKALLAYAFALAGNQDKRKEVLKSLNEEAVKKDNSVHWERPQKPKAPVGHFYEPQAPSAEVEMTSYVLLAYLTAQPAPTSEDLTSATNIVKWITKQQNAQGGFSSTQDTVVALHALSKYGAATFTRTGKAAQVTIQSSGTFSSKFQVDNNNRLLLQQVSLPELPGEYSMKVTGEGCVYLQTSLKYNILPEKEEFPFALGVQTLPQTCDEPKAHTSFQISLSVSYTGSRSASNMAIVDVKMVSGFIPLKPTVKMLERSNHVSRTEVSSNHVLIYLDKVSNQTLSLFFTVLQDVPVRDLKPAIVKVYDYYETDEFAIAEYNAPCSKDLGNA
NCL, P19338, UniProt P19338, whole entry: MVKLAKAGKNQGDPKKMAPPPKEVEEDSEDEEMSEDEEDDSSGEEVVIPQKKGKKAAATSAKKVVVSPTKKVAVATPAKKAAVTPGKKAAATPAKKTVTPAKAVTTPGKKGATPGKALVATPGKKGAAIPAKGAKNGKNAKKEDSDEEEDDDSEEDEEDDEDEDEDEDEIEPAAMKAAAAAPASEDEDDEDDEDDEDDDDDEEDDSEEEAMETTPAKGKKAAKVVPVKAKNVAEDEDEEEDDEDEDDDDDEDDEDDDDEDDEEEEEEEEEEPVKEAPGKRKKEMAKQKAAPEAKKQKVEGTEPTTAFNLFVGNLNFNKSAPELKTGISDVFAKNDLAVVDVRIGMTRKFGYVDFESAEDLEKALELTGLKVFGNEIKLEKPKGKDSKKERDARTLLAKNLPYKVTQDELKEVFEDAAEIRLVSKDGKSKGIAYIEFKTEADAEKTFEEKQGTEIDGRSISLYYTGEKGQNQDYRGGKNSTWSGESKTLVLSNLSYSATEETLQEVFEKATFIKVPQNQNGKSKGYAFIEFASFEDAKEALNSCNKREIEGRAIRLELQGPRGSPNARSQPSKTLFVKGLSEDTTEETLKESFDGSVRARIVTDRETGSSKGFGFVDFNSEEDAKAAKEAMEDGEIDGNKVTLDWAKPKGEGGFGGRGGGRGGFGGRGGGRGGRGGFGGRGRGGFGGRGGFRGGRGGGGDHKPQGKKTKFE
RGPD5, Q99666, UniProt Q99666, whole entry: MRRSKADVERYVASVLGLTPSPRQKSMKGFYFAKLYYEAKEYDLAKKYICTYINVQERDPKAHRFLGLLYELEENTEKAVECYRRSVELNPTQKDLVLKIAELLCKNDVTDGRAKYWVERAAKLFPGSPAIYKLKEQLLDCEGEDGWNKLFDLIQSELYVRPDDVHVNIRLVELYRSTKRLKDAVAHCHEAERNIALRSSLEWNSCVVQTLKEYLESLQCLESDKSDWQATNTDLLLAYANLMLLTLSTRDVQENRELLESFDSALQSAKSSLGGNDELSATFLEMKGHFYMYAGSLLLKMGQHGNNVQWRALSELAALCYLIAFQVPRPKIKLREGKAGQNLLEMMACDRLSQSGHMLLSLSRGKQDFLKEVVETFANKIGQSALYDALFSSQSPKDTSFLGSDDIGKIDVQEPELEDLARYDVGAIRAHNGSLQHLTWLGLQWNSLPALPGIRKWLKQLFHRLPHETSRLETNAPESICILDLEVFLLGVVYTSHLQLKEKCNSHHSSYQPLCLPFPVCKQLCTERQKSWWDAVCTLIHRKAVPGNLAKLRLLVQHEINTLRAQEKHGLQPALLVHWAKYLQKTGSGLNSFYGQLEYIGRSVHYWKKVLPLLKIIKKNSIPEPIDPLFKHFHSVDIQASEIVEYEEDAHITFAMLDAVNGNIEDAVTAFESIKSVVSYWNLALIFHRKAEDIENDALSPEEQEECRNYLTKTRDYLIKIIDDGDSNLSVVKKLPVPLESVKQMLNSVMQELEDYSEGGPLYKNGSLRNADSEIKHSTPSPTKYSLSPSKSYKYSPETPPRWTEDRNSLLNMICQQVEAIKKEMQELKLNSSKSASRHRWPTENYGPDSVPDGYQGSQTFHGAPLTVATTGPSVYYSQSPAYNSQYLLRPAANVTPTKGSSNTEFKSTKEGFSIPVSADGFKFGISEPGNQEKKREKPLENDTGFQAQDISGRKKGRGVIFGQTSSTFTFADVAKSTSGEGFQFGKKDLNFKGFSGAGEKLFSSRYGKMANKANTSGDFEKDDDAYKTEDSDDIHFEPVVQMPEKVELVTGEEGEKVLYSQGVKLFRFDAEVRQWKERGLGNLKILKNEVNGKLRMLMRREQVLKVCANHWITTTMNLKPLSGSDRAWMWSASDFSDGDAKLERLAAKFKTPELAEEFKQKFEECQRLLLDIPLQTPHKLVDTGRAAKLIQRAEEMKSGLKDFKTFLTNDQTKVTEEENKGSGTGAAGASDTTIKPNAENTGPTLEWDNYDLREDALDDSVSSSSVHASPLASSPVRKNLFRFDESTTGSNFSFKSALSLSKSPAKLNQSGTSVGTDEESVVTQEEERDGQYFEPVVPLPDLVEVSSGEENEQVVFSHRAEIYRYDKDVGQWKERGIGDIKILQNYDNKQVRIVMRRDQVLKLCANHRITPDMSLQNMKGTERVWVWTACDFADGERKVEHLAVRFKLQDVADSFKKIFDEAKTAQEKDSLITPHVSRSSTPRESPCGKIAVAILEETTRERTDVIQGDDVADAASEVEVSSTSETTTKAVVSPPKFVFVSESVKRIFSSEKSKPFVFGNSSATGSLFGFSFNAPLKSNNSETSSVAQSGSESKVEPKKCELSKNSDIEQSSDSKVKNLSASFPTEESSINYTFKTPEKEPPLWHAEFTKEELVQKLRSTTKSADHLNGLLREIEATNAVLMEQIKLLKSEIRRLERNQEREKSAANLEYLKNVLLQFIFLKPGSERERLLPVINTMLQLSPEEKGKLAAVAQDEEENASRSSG

This is one part of the list. The list holds hits alone, and they repeat only in part.

What all share (assay): PRISMA enrichment of interactor (LFQ) in peptide spot vs all other peptide spots (log2 fold change); higher = stronger / more specific binding of the interactor to the peptide
For one assay, the target named is SERPINB10, P48595. On the procedure: (§1)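 PRISMA: 221 full-length sORF-encoded peptides (3-15 aa), plus SOS1/GLUT1 control peptides, were spot-synthesized on cellulose membranes in triplicate. Membranes were incubated with HEK293T lysate, and bound proteins were identified by LC-MS/MS with LFQ. Enrichment is the log2 fold change versus all other peptide spots; only significant interactors are listed (cutoff c=6, x0=2.8).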

A further assay has as its target NUDT16L1, Q9BRJ7. Here is the method:
as §1

In another assay the target is NUTF2, P61970. Here is the method:
as §1

The next assay addresses PDCD6, O75340. Here is the method:
as §1

Another assay addresses SRI, P30626. On the procedure:
as §1

The target in a further assay is TRAF2, Q12933. Here is the method:
as §1

The target in the next assay is NUP54, Q7Z3B4. On the procedure: as §1
The next assay has as its target NXT1, Q9UKK6. Here is the method: as §1
A further assay deals with PINX1, Q96BK5. On the procedure:
as §1

A further assay addresses A2M, P01023. Here is the method: (§2)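 PRISMA: 15-aa overlapping tiles (offset 8 aa) of 60 microproteins, plus SOS1/GLUT1 control peptides, were spot-synthesized on cellulose membranes in triplicate. Membranes were incubated with benzonase-treated HEK293T lysate, and bound proteins were identified by LC-MS/MS with LFQ. Enrichment is the log2 fold change of each protein in one spot versus all other spots. Only interactors passing the significance cutoff are listed.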

The target of the next assay is AAR2, Q9Y312. On the procedure: as §2
In a further assay the target is ACSL3, O95573. On the procedure: as §2
In another assay the target is AFF3, P51826. Here is the method: as §2
The next assay deals with ALG1, Q9BT22. Here is the method: as §2
The target in another assay is CDC73, Q6P1J9. On the procedure:
as §2

The target in another assay is CEBPZ, Q03701. Here is the method:
as §2

The target of the next assay is CYC1, P08574. On the procedure: as §2
A further assay deals with GRPEL1, Q9HAV7. Here is the method: as §2
The target in the next assay is LYPLAL1, Q5VWZ2. Here is the method: as §2
A further assay addresses MTPAP, Q9NVV4. On the procedure: as §2
For the next assay, the target named is NCL, P19338. Here is the method: as §2
A further assay deals with NEK7, Q8TDX7. Here is the method:
as §2

The next assay concerns the target ORC2, Q13416. On the procedure: as §2
The target of another assay is ORC5, O43913. Here is the method: as §2
The target in the next assay is OXA1L, Q15070. On the procedure: as §2
In the next assay the target is PPP1R2, P41236. On the procedure: as §2
The target of another assay is PTMA, P06454. Here is the method: as §2
The target of the next assay is RGPD5, Q99666. On the procedure: as §2
The next assay deals with RPUSD3, Q6P087. On the procedure:
as §2

The target in another assay is SMC3, Q9UQE7. Here is the method:
as §2

Another assay deals with SRSF2, Q01130. Here is the method:
as §2

Another assay deals with STMN1, P16949. Here is the method: as §2
Another assay has as its target UQCRFS1, P47985. Here is the method:
as §2

The target of the next assay is USP7, Q93009. Here is the method:
as §2

Another assay concerns the target ZBTB11, O95625. On the procedure: as §2

B1: TNFAIP2 (peptide)
chain: MLKMMTFFQGL
For the molecule B1, the “PRISMA enrichment of interactor (log2)” value with SERPINB10, P48595 came out at 4.37.

B2: NR1D1 (peptide)
chain: MTALSW
With B2, the “PRISMA enrichment of interactor (log2)” value was 5.27 in the assay with NUDT16L1, Q9BRJ7; 6.7 in the assay with NUTF2, P61970; 6.07 with PDCD6, O75340; 4.7 with SRI, P30626.

B3: MAGI2-AS3 (peptide)
chain: MSYNNRMQESTYQ
Turning to B3, the “PRISMA enrichment of interactor (log2)” value in the assay with TRAF2, Q12933 stood at 8.97.

B4: ADGRF5 (peptide)
chain: MSLAWFSLHWA
Regarding B4, the “PRISMA enrichment of interactor (log2)” value with NUP54, Q7Z3B4 worked out at 4.83.

B5: ZZZ3 (peptide)
chain: MTDKYRRMGIKY
Turning to B5, the “PRISMA enrichment of interactor (log2)” value worked out at 5.14 with NXT1, Q9UKK6 and 6.7 with PINX1, Q96BK5.

B6: IDI2-AS1 (peptide)
chain: KSSALGKEVGRRVKE
For the molecule B6, the “PRISMA enrichment of interactor (log2)” value with A2M, P01023 is 5.09; with AAR2, Q9Y312, 5.61; in the assay with ACSL3, O95573, 6.09; in the assay with AFF3, P51826, 3.9; with ALG1, Q9BT22, 7.95; with CDC73, Q6P1J9, 5.84. For the same molecule, the “PRISMA enrichment of interactor (log2)” value with CEBPZ, Q03701 is 4.38; with CYC1, P08574, 5.01; in the assay with GRPEL1, Q9HAV7, 5.08; in the assay with LYPLAL1, Q5VWZ2, 5.08; with MTPAP, Q9NVV4, 7.73; with NCL, P19338, 4.68. Further, the “PRISMA enrichment of interactor (log2)” value is 4.46 with NEK7, Q8TDX7; 4.25 with ORC2, Q13416; 6.14 with ORC5, O43913; 4.55 with OXA1L, Q15070; 4.39 with PPP1R2, P41236; 6.12 with PTMA, P06454. Besides, the “PRISMA enrichment of interactor (log2)” value in the assay with RGPD5, Q99666 was found to be 5.83; in the assay with RPUSD3, Q6P087, 4.24; in the assay with SMC3, Q9UQE7, 4.8; with SRSF2, Q01130 it was 5.07; with STMN1, P16949, 4.39; in the assay with UQCRFS1, P47985, 6.79. Further, the “PRISMA enrichment of interactor (log2)” value in the assay with USP7, Q93009 is 4.91; with ZBTB11, O95625, 5.55.
